PubChem BioAssay AID1224826 | NIAID | 2016

Aim: 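Genes that change LPS-induced Tnf promoter activity in mouse macrophages when knocked down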 (primary screen)
Cell system: RAW264.7 G9 macrophages from mouse bearing reporters for p65 (GFP) and the Tnf promoter (mCherry)
Reagents: siRNA pool against mouse genes, 100 nM
Timing: 16 h of LPS stimulation, after 2 days of siRNA transfection
Challenge: bacterial lipopolysaccharide (Salmonella minnesota R595), 10 ng/ml
Read-out: 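Nuclear mCherry signal of the Tnf promoter reporter measured by imaging after background removal, scaled to each plate median and turned into robust z-scores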
Scale: Tnf reporter robust z-score: higher = stronger Tnf promoter reporter signal after LPS
Hit rule: 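a well counts as active at a score of -1.3 or below (Tlr4 knock-down control median) or above 3 (raised signal); controls and wells holding fewer than 50 cells are excluded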
Meaning of the calls: active = Tnf reporter clearly lowered or raised; inactive = no clear change in Tnf reporter
In all, the deposit lists about 17,000 reagents; shown is a random part of them. About 1,110 of all reagents (6.6%) count as active. 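Active means lowered or raised reporter signal; replicate intensities are raw and not normalised per plate.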 The numbers tell different reagents against one gene apart. Not all columns of the deposit are shown.

target | reagent | Tnf reporter robust z-score | fewer than 50 cells in well | activity call
Zfp369 | 1 | 0.4 | enough cells in well | inactive
Wfdc1 | 1 | -0.05 | enough cells in well | inactive
Med12l | 1 | -0.78 | enough cells in well | inactive
Or2g7 | 1 | -0.42 | enough cells in well | inactive
Gjd4 | 1 | 0.67 | enough cells in well | inactive
Ehd4 | 1 | -0.59 | enough cells in well | inactive
Aida | 1 | – | fewer than 50 cells per well; well left out of calls | inactive
Mettl23 | 1 | 1.11 | enough cells in well | inactive
Deaf1 | 1 | 0.09 | enough cells in well | inactive
Csnk1g3 | 1 | -0.36 | enough cells in well | inactive
Csnk1g3 | 2 | -0.34 | enough cells in well | inactive
Cibar1 | 1 | 0.69 | enough cells in well | inactive
Slc25a39 | 1 | – | fewer than 50 cells per well; well left out of calls | inactive
Fam131a | 1 | 1.11 | enough cells in well | inactive
2010013B10RIK | 1 | – | fewer than 50 cells per well; well left out of calls | inactive
Matr3 | 1 | -0.41 | enough cells in well | inactive
Rin3 | 1 | 0.94 | enough cells in well | inactive
Nvl | 1 | -1.17 | enough cells in well | inactive
Plekhh2 | 1 | 1.41 | enough cells in well | inactive
F13b | 1 | -0.32 | enough cells in well | inactive
Rhoc | 1 | 0.59 | enough cells in well | inactive
Htr5a | 1 | -0.28 | enough cells in well | inactive
Tcstv2a | 1 | 0.65 | enough cells in well | inactive
Stxbp5l | 1 | -0.78 | enough cells in well | inactive
Slk | 1 | – | fewer than 50 cells per well; well left out of calls | inactive
Fanci | 1 | -0.13 | enough cells in well | inactive
Slc35g3 | 1 | -0.44 | enough cells in well | inactive
Sugct | 1 | -0.35 | enough cells in well | inactive
Icos | 1 | 1.45 | enough cells in well | inactive
Bin3 | 1 | 0.05 | enough cells in well | inactive
Nmbr | 1 | 2.06 | enough cells in well | inactive
Spaca1 | 1 | – | fewer than 50 cells per well; well left out of calls | inactive
Zfp300 | 1 | -1.21 | enough cells in well | inactive
9330169L03Rik | 1 | -0.48 | enough cells in well | inactive
Ppp4r4 | 1 | 1.27 | enough cells in well | inactive
Iba57 | 1 | – | fewer than 50 cells per well; well left out of calls | inactive
Iba57 | 2 | 0.34 | enough cells in well | inactive
Or10d4b | 1 | -0.68 | enough cells in well | inactive
Prmt8 | 1 | 1.03 | enough cells in well | inactive
Acy1 | 1 | -0.69 | enough cells in well | inactive
Paxx | 1 | -0.75 | enough cells in well | inactive
Or7a37 | 1 | 1.06 | enough cells in well | inactive
B230340J04Rik | 1 | -0.15 | enough cells in well | inactive
Rnmt | 1 | 0.95 | enough cells in well | inactive
Gfod2 | 1 | – | fewer than 50 cells per well; well left out of calls | inactive
Btnl10 | 1 | -0.12 | enough cells in well | inactive
Lgsn | 1 | 0.58 | enough cells in well | inactive
Gusb | 1 | -1.22 | enough cells in well | inactive
Sugp2 | 1 | 4.62 | enough cells in well | active
Tmem40 | 1 | -0.57 | enough cells in well | inactive
Nr6a1 | 1 | -0.91 | enough cells in well | inactive
Exosc9 | 1 | 0 | enough cells in well | inactive
Cstpp1 | 1 | 0.27 | enough cells in well | inactive
Krt8 | 1 | -1.22 | enough cells in well | inactive
Pus1 | 1 | 0.31 | enough cells in well | inactive
Cks1b | 1 | -1.13 | enough cells in well | inactive
Arfrp1 | 1 | -0.9 | enough cells in well | inactive
Erp27 | 1 | – | fewer than 50 cells per well; well left out of calls | inactive

A stretch of the results above:
target | reagent | Tnf reporter robust z-score | fewer than 50 cells in well | activity call
Gfod2 | 1 | – | fewer than 50 cells per well; well left out of calls | inactive
Btnl10 | 1 | -0.12 | enough cells in well | inactive
Lgsn | 1 | 0.58 | enough cells in well | inactive
Gusb | 1 | -1.22 | enough cells in well | inactive
Sugp2 | 1 | 4.62 | enough cells in well | active
